Test results as given in the supplement of paper PMC4604168 (melanoma cell lines).
The list shows a part of the results. Repeats are few or missing, and single values can be far off.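 Cells were imaged in 1,536-well plates, and nuclei stained with an antibody against cleaved PARP were counted against all DNA-stained nuclei to give the apoptosis fraction. Screening doses were chosen to leave most cells alive, and resting and induced cleaved-PARP levels differ strongly between cell lines.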

What was measured:
Test in all cases: cleaved PARP positive nuclei fraction relative to DMSO control; melanoma cells; higher = more apoptosis
Details in all cases: library dose: low library concentration; 72 h
501Mel = system: 501Mel
A101D = system: A101D
A2058 = system: A2058
A375 = system: A375
C32 = system: C32
CBRC008 = system: CBRC008 (line from a melanoma biopsy)
CBRC014 = system: CBRC014 (line from a melanoma biopsy)
CBRC016 = system: CBRC016 (line from a melanoma biopsy)
CBRC017 = system: CBRC017 (line from a melanoma biopsy)
CBRC034 = system: CBRC034 (line from a melanoma biopsy)
COLO792 = system: COLO792
COLO800 = system: COLO800
COLO829 = system: COLO829
G361 = system: G361
IPC-298 = system: IPC-298
IST-MEL1 = system: IST-MEL1
LB2518-MEL = system: LB2518-MEL
LOXIMVI = system: LOXIMVI
MEL-HO = system: MEL-HO

SMILES | cleaved PARP positive nuclei fraction (501Mel) | cleaved PARP positive nuclei fraction (A101D) | cleaved PARP positive nuclei fraction (A2058) | cleaved PARP positive nuclei fraction (A375) | cleaved PARP positive nuclei fraction (C32) | cleaved PARP positive nuclei fraction (CBRC008) | cleaved PARP positive nuclei fraction (CBRC014) | cleaved PARP positive nuclei fraction (CBRC016) | cleaved PARP positive nuclei fraction (CBRC017) | cleaved PARP positive nuclei fraction (CBRC034) | cleaved PARP positive nuclei fraction (COLO792) | cleaved PARP positive nuclei fraction (COLO800) | cleaved PARP positive nuclei fraction (COLO829) | cleaved PARP positive nuclei fraction (G361) | cleaved PARP positive nuclei fraction (IPC-298) | cleaved PARP positive nuclei fraction (IST-MEL1) | cleaved PARP positive nuclei fraction (LB2518-MEL) | cleaved PARP positive nuclei fraction (LOXIMVI) | cleaved PARP positive nuclei fraction (MEL-HO)
CC(=O)O[C@@]12CO[C@@H]1C[C@H](O)[C@@]1(C)C(=O)[C@H](O)C3=C(C)[C@@H](OC(=O)[C@H](O)[C@@H](NC(=O)OC(C)(C)C)c4ccccc4)C[C@@](O)([C@@H](OC(=O)c4ccccc4)[C@H]21)C3(C)C [Docetaxel] + Clc1ccc(Nc2nnc(Cc3ccncc3)c3ccccc23)cc1 [vatalanib] (first compound 0.0001 µM, partner dose 2 µM) | 146% | 113% | 2130% | 1420% | 90.3% | 402% | 198% | 63.5% | 241% | 151% | 746% | 313% | 186% | 662% | 370% | 196% | 306% | 143% | 248%
CC1(C)CCC(c2ccc(Cl)cc2)=C(CN2CCN(c3ccc(C(=O)NS(=O)(=O)c4ccc(N[C@H](CCN5CCOCC5)CSc5ccccc5)c(S(=O)(=O)C(F)(F)F)c4)cc3)CC2)C1 + Cn1c(=O)n(-c2ccc(C(C)(C)C#N)cc2)c2c3cc(-c4cnc5ccccc5c4)ccc3ncc21 [NVP-BEZ235] (first compound 0.4 µM, partner dose 0.004 µM) | 110% | 602% | 192% | 102% | 96.3% | 922% | 553% | 427% | 357% | 194% | 507% | 154% | 104% | 249% | 179% | 80.5% | 229% | 165% | 52.6%
NC(=O)c1ccc(N(C(N)=O)c2c(F)cccc2F)nc1-c1ccc(F)cc1F + CC(C)C[C@H](NC(=O)[C@H](Cc1ccccc1)NC(=O)c1cnccn1)B(O)O [Bortezomib] (first compound 0.4 µM, partner dose 0.001 µM) | 224% | 523% | 29.4% | 43.7% | 69.2% | 275% | 138% | 472% | 244% | 59.9% | 64.5% | 52.2% | 245% | 599% | 90.2% | 65.5% | 153% | 129% | 77.3%
COc1ccc(C2=N[C@@H](c3ccc(Cl)cc3)[C@@H](c3ccc(Cl)cc3)N2C(=O)N2CCNC(=O)C2)c(OC(C)C)c1 [Nutlin-3] + C=C(c1ccc(C(=O)O)cc1)c1cc2c(cc1C)C(C)(C)CCC2(C)C [Bexarotene] (first compound 0.1 µM, partner dose 2 µM) | 124% | 169% | 72.5% | 57.8% | 39.7% | 114% | 118% | 120% | 129% | 76.1% | 48.3% | 63.4% | 57.5% | 144% | 176% | 75.7% | 180% | 146% | 71.3%
C[C@]1(O)C[C@@H](c2nc(-c3ccc4ccc(-c5ccccc5)nc4c3)c3c(N)nccn32)C1 + CCCS(=O)(=O)Nc1ccc(F)c(C(=O)c2c[nH]c3ncc(Cl)cc23)c1F [PLX4720] (first compound 0.4 µM, partner dose 0.08 µM) | 190% | 143% | 122% | 480% | 362% | 288% | 120% | 82.6% | 131% | 149% | 104% | 186% | 86.6% | 226% | 127% | 22.7% | 196% | 81.2% | 98.4%
C[C@]1(O)C[C@@H](c2nc(-c3ccc4ccc(-c5ccccc5)nc4c3)c3c(N)nccn32)C1 + Nc1ccn([C@@H]2O[C@H](CO)[C@@H](O)C2(F)F)c(=O)n1 [gemcitabine] (first compound 0.4 µM, partner dose 0.0004 µM) | 108% | 62.2% | 120% | 242% | 145% | 343% | 133% | 54.2% | 92% | 62.4% | 101% | 281% | 96.1% | 206% | 201% | 39.2% | 486% | 107% | 54.3%
C[C@@H](N)c1ccc(C(=O)Nc2ccnc3[nH]ccc23)cc1 + Cc1cc(Nc2cc(N3CCN(C)CC3)nc(/C=C/c3ccccc3)n2)n[nH]1 [ENMD2076] (first compound 0.4 µM, partner dose 0.04 µM) | 143% | 44.5% | 113% | 299% | 84.4% | 133% | 101% | 114% | 95.6% | 265% | 154% | 90.4% | 155% | 156% | 57.7% | 90.8% | 43.1% | 124% | 190%
Cn1cnc2c(F)c(Nc3ccc(Br)cc3Cl)c(C(=O)NOCCO)cc21 [selumetinib] + C[C@]1(c2nc3c(C(N)=O)cccc3[nH]2)CCCN1 [Veliparib] (first compound 0.015 µM, partner dose 1.4 µM) | 1040% | 148% | 39.1% | 142% | 94% | 98.2% | 83% | 101% | 235% | 114% | 81.1% | 38.6% | 102% | 74.7% | 58.2% | 90.2% | 101% | 120% | 246%
C[C@]1(O)C[C@@H](c2nc(-c3ccc4ccc(-c5ccccc5)nc4c3)c3c(N)nccn32)C1 + CCN(CC)CCNC(=O)c1c(C)[nH]c(/C=C2\C(=O)Nc3ccc(F)cc32)c1C [sunitinib] (first compound 0.4 µM, partner dose 0.4 µM) | 103% | 102% | 65.1% | 264% | 80% | 135% | 121% | 47.9% | 138% | 145% | 103% | 271% | 60.5% | 123% | 47.4% | 167% | 93% | 94.9% | 72.4%
NC1(c2ccc(-c3nc4ccn5c(=O)[nH]nc5c4cc3-c3ccccc3)cc2)CCC1 + CCCS(=O)(=O)Nc1ccc(F)c(C(=O)c2c[nH]c3ncc(Cl)cc23)c1F [PLX4720] (first compound 0.4 µM, partner dose 0.08 µM) | 78.7% | 52.8% | 188% | 327% | 179% | 142% | 84.8% | 81.6% | 92.7% | 23.9% | 140% | 160% | 37.4% | 99.4% | 29.5% | 34.6% | 188% | 60.9% | 432%
C[C@@H](N)c1ccc(C(=O)Nc2ccnc3[nH]ccc23)cc1 + Cc1nc(Nc2ncc(C(=O)Nc3c(C)cccc3Cl)s2)cc(N2CCN(CCO)CC2)n1 [dasatanib] (first compound 0.4 µM, partner dose 0.004 µM) | 104% | 266% | 115% | 258% | 101% | 106% | 106% | 81.9% | 162% | 89.2% | 205% | 66.5% | 75.7% | 71.9% | 84.5% | 263% | 91.4% | 212% | 60.9%
Cn1sc(=O)n(Cc2ccccc2)c1=O + CC(=O)O[C@@]12CO[C@@H]1C[C@H](O)[C@@]1(C)C(=O)[C@H](O)C3=C(C)[C@@H](OC(=O)[C@H](O)[C@@H](NC(=O)OC(C)(C)C)c4ccccc4)C[C@@](O)([C@@H](OC(=O)c4ccccc4)[C@H]21)C3(C)C [Docetaxel] (first compound 0.4 µM, partner dose 0.0001 µM) | 80.6% | 67.1% | 1780% | 2100% | 133% | 244% | 219% | 268% | 160% | 128% | 398% | 337% | 275% | 573% | 207% | 174% | 134% | 116% | 192%
CC1(C)CCC(c2ccc(Cl)cc2)=C(CN2CCN(c3ccc(C(=O)NS(=O)(=O)c4ccc(N[C@H](CCN5CCOCC5)CSc5ccccc5)c(S(=O)(=O)C(F)(F)F)c4)cc3)CC2)C1 + CC(=O)c1c(C)c2cnc(Nc3ccc(N4CCNCC4)cn3)nc2n(C2CCCC2)c1=O [palbociclib] (first compound 0.4 µM, partner dose 0.04 µM) | 65.8% | 300% | 143% | 834% | 135% | 386% | 390% | 392% | 332% | 159% | 458% | 176% | 139% | 81% | 149% | 111% | 140% | 228% | 162%
CCCCCCCCc1ccc(CCC(N)(CO)CO)cc1 [fingolimod] + Cc1nc(Nc2ncc(C(=O)Nc3c(C)cccc3Cl)s2)cc(N2CCN(CCO)CC2)n1 [dasatanib] (first compound 2 µM, partner dose 0.004 µM) | 76.1% | 156% | 87.8% | 204% | 252% | 97.5% | 285% | 32.4% | 109% | 288% | 95.6% | 172% | 170% | 99.5% | 29.2% | 65.9% | 57.3% | 41.6% | 177%
NC1(c2ccc(-c3nc4ccn5c(=O)[nH]nc5c4cc3-c3ccccc3)cc2)CCC1 + Cn1nnc2c(C(N)=O)ncn2c1=O [temozolomide] (first compound 0.4 µM, partner dose 2 µM) | 287% | 29.4% | 53.3% | 250% | 64.8% | 93% | 108% | 46.6% | 81.4% | 120% | 37.2% | 32.7% | 38.7% | 93% | 88.5% | 261% | 107% | 128% | 132%
CC(=O)O[C@@]12CO[C@@H]1C[C@H](O)[C@@]1(C)C(=O)[C@H](O)C3=C(C)[C@@H](OC(=O)[C@H](O)[C@@H](NC(=O)OC(C)(C)C)c4ccccc4)C[C@@](O)([C@@H](OC(=O)c4ccccc4)[C@H]21)C3(C)C [Docetaxel] + Nc1ccn([C@@H]2O[C@H](CO)[C@@H](O)C2(F)F)c(=O)n1 [gemcitabine] (first compound 0.0001 µM, partner dose 0.0004 µM) | 794% | 115% | 1940% | 2220% | 124% | 477% | 185% | 190% | 206% | 70.3% | 579% | 146% | 269% | 569% | 293% | 132% | 329% | 97.6% | 131%

Single records (already shown). Order of values: cleaved PARP positive nuclei fraction (501Mel) | cleaved PARP positive nuclei fraction (A101D) | cleaved PARP positive nuclei fraction (A2058) | cleaved PARP positive nuclei fraction (A375) | cleaved PARP positive nuclei fraction (C32) | cleaved PARP positive nuclei fraction (CBRC008) | cleaved PARP positive nuclei fraction (CBRC014) | cleaved PARP positive nuclei fraction (CBRC016) | cleaved PARP positive nuclei fraction (CBRC017) | cleaved PARP positive nuclei fraction (CBRC034) | cleaved PARP positive nuclei fraction (COLO792) | cleaved PARP positive nuclei fraction (COLO800) | cleaved PARP positive nuclei fraction (COLO829) | cleaved PARP positive nuclei fraction (G361) | cleaved PARP positive nuclei fraction (IPC-298) | cleaved PARP positive nuclei fraction (IST-MEL1) | cleaved PARP positive nuclei fraction (LB2518-MEL) | cleaved PARP positive nuclei fraction (LOXIMVI) | cleaved PARP positive nuclei fraction (MEL-HO)
CC(=O)O[C@@]12CO[C@@H]1C[C@H](O)[C@@]1(C)C(=O)[C@H](O)C3=C(C)[C@@H](OC(=O)[C@H](O)[C@@H](NC(=O)OC(C)(C)C)c4ccccc4)C[C@@](O)([C@@H](OC(=O)c4ccccc4)[C@H]21)C3(C)C [Docetaxel] + Clc1ccc(Nc2nnc(Cc3ccncc3)c3ccccc23)cc1 [vatalanib] (first compound 0.0001 µM, partner dose 2 µM) in the list: 146% | 113% | 2130% | 1420% | 90.3% | 402% | 198% | 63.5% | 241% | 151% | 746% | 313% | 186% | 662% | 370% | 196% | 306% | 143% | 248%
NC1(c2ccc(-c3nc4ccn5c(=O)[nH]nc5c4cc3-c3ccccc3)cc2)CCC1 + Cn1nnc2c(C(N)=O)ncn2c1=O [temozolomide] (first compound 0.4 µM, partner dose 2 µM) in the list: 287% | 29.4% | 53.3% | 250% | 64.8% | 93% | 108% | 46.6% | 81.4% | 120% | 37.2% | 32.7% | 38.7% | 93% | 88.5% | 261% | 107% | 128% | 132%
